# In patent US12534704B2, “Organ extracellular matrix-derived scaffold for culture and transplantation of organoid and method of preparing the same” (CELLARTGEN INC., priority 2020, dated 2026):
# At least one compound was matched to its structure with a doubt left.
# Key:
# [1] = tested on: cystic fibrosis transmembrane conductance regulator (CFTR); experiment: Forskolin-induced swelling of mouse lung organoid; assay type: cell-based; settings: organoid in LuEM hydrogel scaffold
# [2] = tested on: cystic fibrosis transmembrane conductance regulator (CFTR); experiment: Forskolin-induced swelling of intestinal organoid; assay type: cell-based, mouse; settings: 5 μM forskolin
# [3] = tested on: human lung organoid; experiment: Forskolin-induced swelling of human lung organoid; assay type: cell-based; settings: organoid cultured in LuEM
smiles,measurement,setting,value
C=C[C@@]1(C)CC(=O)[C@]2(O)[C@@]3(C)[C@@H](O)CCC(C)(C)[C@@H]3[C@H](O)[C@H](OC(C)=O)[C@@]2(C)O1 [forskolin],lung organoid swelling,[1],swells over time
same,lumen swelling of intestinal organoids,[2],swollen
same,swelling response of human lung organoid,[3],swollen over time
